# Experimental data as given in PubChem BioAssay AID248 (DTP/NCI, 2004).
# The list shows only some results of the screen, not a fair sample: it is rich in T/C values a quarter to a half above the control, in often repeated tests (any T/C) and in doses without a T/C. Other doses and runs of a compound stand elsewhere. T/C gives the treated animals as a percentage of the vehicle group. Some doses have a count of surviving animals in place of a T/C: the source holds a T/C of zero for them, seemingly a mark for toxic or unscored doses. Some survivor counts are full or nearly so, which does not show that the dose was tolerated: survival well below the control is almost never listed, so the zero probably covers shortened survival too. Counts of survivors are from the toxicity check (mostly the fifth day) where no day follows; animals may have died later. Schedules are NCI's codes, read here as Q, the interval in days (D) or hours (H), X, the number of doses. Some entries hold several experiments; their values stand side by side, smallest first. Some schedules carry Z or #; the key to these is not given. Some structures stand for samples that the source files as different forms (salt, stereo form or complex); doses refer to the form tested. Where survival is the endpoint, this PubChem deposit counts one and a half times the control or more as active, and values a quarter to a half above the control carry no call in these data; other NCI protocols may use other cut-offs.
# System: L1210 leukemia ip in BDF1 mice, survival T/C
# Test: NCI In Vivo Anticancer Drug Screen. Data for tumor model L1210 Leukemia (intraperitoneal) in B6D2F1 (BDF1) mice
# Settings: T/C endpoint: mean survival time, higher T/C = longer survival
# [1] = dose: 200.0 mg/kg/injection, schedule: Q01DX009 (ip), vehicle: Klucel (hydroxypropylcellulose) (HPC)
# [2] = dose: 400.0 mg/kg/injection, schedule: Q01DX009 (ip), vehicle: Klucel (hydroxypropylcellulose) (HPC)
# [3] = dose: 200.0 mg/kg/injection, schedule: Q01DX009 (ip), vehicle: saline
# [4] = dose: 400.0 mg/kg/injection, schedule: Q04DX003 (ip), vehicle: saline
# [5] = dose: 100.0 mg/kg/injection, schedule: Q01DX001 (ip), vehicle: other
# [6] = dose: 200.0 mg/kg/injection, schedule: Q01DX009 (ip), vehicle: saline with Tween-80
# [7] = dose: 100.0 mg/kg/injection, schedule: Q04DX003 (ip), vehicle: saline with Tween-80
# [8] = dose: 200.0 mg/kg/injection, schedule: Q04DX003 (ip), vehicle: saline with Tween-80
# [9] = dose: 75.0 mg/kg/injection, schedule: Q01DX001 (ip), vehicle: carboxymethylcellulose (CMC)
# [10] = dose: 150.0 mg/kg/injection, schedule: Q01DX001 (ip), vehicle: carboxymethylcellulose (CMC)
# [11] = dose: 300.0 mg/kg/injection, schedule: Q01DX001 (ip), vehicle: carboxymethylcellulose (CMC)
# [12] = dose: 400.0 mg/kg/injection, schedule: Q04DX003 (ip), vehicle: saline with Tween-80
# [13] = dose: 50.0 mg/kg/injection, schedule: Q01DX009 (ip), vehicle: Klucel (hydroxypropylcellulose) (HPC)
# [14] = dose: 100.0 mg/kg/injection, schedule: Q01DX009 (ip), vehicle: Klucel (hydroxypropylcellulose) (HPC)
# [15] = dose: 100.0 mg/kg/injection, schedule: Q04DX002 (ip), vehicle: Klucel (hydroxypropylcellulose) (HPC)
# [16] = dose: 200.0 mg/kg/injection, schedule: Q04DX002 (ip), vehicle: Klucel (hydroxypropylcellulose) (HPC)
# [17] = dose: 400.0 mg/kg/injection, schedule: Q04DX002 (ip), vehicle: Klucel (hydroxypropylcellulose) (HPC)
structure (smiles),measurement,setting,value
O=C1c2cc(Cl)cc(Cl)c2-c2c(NC(=O)C(Cl)Cl)cc(Cl)cc21,survivor count,[1],3 of 6
same,survivor count,[2],0 of 6
CN1CCC(OC2c3ccccc3CCc3ccccc32)CC1,survivor count,[3],0 of 6
same,survivor count,"dose: 200.0 mg/kg/injection, schedule: Q04DX003 (ip), vehicle: saline",0 of 4
same,survivor count,"dose: 400.0 mg/kg/injection, schedule: Q01DX009 (ip), vehicle: saline",0 of 6
same,survivor count,[4],0 of 4
COC(=O)c1ccccc1-c1ccccc1C(=O)O,T/C,[5],126 % of control
O=[N+]([O-])c1ncn[nH]1,survivor count,[6],6 of 6
N#Cc1ncc(C(Cl)Cl)nc1Cl,survivor count,[4],2 of 6
CCC([NH-])=O.CCC([NH-])=O.[Pt+2],survivor count,"dose: 400.0 mg/kg/injection, schedule: Q01DX009 (ip), vehicle: water",1 of 6
C[N+](C)(C)c1ccc(Cc2ccc([N+](C)(C)C)cc2)cc1,survivor count,"dose: 0.05 mg/kg/injection, schedule: Q04DX002 (ip), vehicle: saline with Tween-80",0 of 3
same,survivor count,"dose: 0.1 mg/kg/injection, schedule: Q04DX002 (ip), vehicle: saline with Tween-80",0 of 3
same,survivor count,"dose: 0.2 mg/kg/injection, schedule: Q04DX002 (ip), vehicle: saline with Tween-80",0 of 3
same,survivor count,"dose: 0.78 mg/kg/injection, schedule: Q04DX002 (ip), vehicle: saline with Tween-80",0 of 3
same,survivor count,"dose: 1.56 mg/kg/injection, schedule: Q04DX002 (ip), vehicle: saline with Tween-80",0 of 3
same,survivor count,"dose: 3.13 mg/kg/injection, schedule: Q04DX002 (ip), vehicle: saline with Tween-80",0 of 3
same,survivor count,"dose: 100.0 mg/kg/injection, schedule: Q04DX002 (ip), vehicle: saline with Tween-80",0 of 3
same,survivor count,"dose: 200.0 mg/kg/injection, schedule: Q04DX002 (ip), vehicle: saline with Tween-80",0 of 3
same,survivor count,"dose: 400.0 mg/kg/injection, schedule: Q04DX002 (ip), vehicle: saline with Tween-80",0 of 3
COc1cc2c(cc1OC)C13CCN4CC5=CCOC6CC(=O)N2C1C6C5CC43 (centres undefined),survivor count,"dose: 75.0 mg/kg/injection, schedule: Q01DX001 (ip), vehicle: other",3 of 6
same,survivor count,"dose: 150.0 mg/kg/injection, schedule: Q01DX001 (ip), vehicle: other",0 of 6
same,survivor count,"dose: 200.0 mg/kg/injection, schedule: Q01DX015 (ip), vehicle: saline",0 of 6
same,survivor count,"dose: 300.0 mg/kg/injection, schedule: Q01DX001 (ip), vehicle: other",0 of 6
O=c1nc2n(O)cccc-2c(=O)[nH]1,survivor count,"dose: 400.0 mg/kg/injection, schedule: Q04DX003 (ip), vehicle: Klucel (hydroxypropylcellulose) (HPC)",1 of 6
N#Cc1cnn2c(=O)[nH]cnc12,survivor count,"dose: 400.0 mg/kg/injection, schedule: Q01DX009 (ip), vehicle: saline sonified",5 of 6
CC(C)(CS(C)(=O)=O)C(=O)O,survivor count,[3],6 of 6
CN=C(NC)c1cccc(NC(=O)c2ccc(C(=O)Nc3cccc(C(=NC)NC)c3)c(N)c2)c1,survivor count,"dose: 30.0 mg/kg/injection, schedule: Q01DX Z (ip), vehicle: water",0 of 6
O=C1CC2CCC1C2Cl (centres undefined),survivor count,[7],5 of 6
same,survivor count,[8],0 of 6
same,survivor count,"dose: 400.0 mg/kg/injection, schedule: Q01DX001 (ip), vehicle: saline with Tween-80",0 of 6
CC(=O)Nc1c(Cl)cc(-c2ccc(F)cc2)cc1Cl,survivor count,[9],2 of 6
same,survivor count,[10],0 of 6
same,survivor count,[11],0 of 6
CC(=O)OCCSC#N,survivor count,"dose: 50.0 mg/kg/injection, schedule: Q04DX003 (ip), vehicle: saline with Tween-80",0 of 6
same,survivor count,[7],0 of 6
same,survivor count,[8],0 of 6
same,survivor count,[12],0 of 6
COC(=O)N/N=C/c1ccc(Cl)cc1Cl,survivor count,[13],2 of 6
same,survivor count,[14],0 of 6
same,survivor count,[15],1 of 3
same,survivor count,[16],0 of 3
same,survivor count,[17],0 of 3
COC(CBr)OC,survivor count,[7],0 of 6 and 1 of 6
same,survivor count,[8],0 of 6
same,survivor count,[12],0 of 6
CCC(O)C(CCN(C)C)(CN(C)C)c1ccccc1 (centres undefined),survivor count,[11],0 of 6
[O-][n+]1c(Cl)cccc1Cl,survivor count,[9],2 of 6
same,survivor count,[10],0 of 6
same,survivor count,[11],0 of 6
Cc1ccc(/C(C#N)=C2C=C(Br)/C(=N\O)C=C/2Cl)cc1,survivor count,"dose: 335.0 mg/kg/injection, schedule: Q01DX009 (ip), vehicle: saline with Tween-80",3 of 6
CC(=O)c1cccc(NC(=O)Oc2cc(=O)oc3ccccc23)c1,survivor count,[1],4 of 6
same,survivor count,[2],1 of 6
Nc1nc(N)c2c(n1)CCP(c1ccccc1)C2 (centres undefined),survivor count,[7],3 of 5
same,survivor count,[8],0 of 6
same,survivor count,[12],0 of 6
Cc1cnc(C#N)c(C#N)n1,survivor count,[15],0 of 3
same,survivor count,[16],0 of 3
same,survivor count,[17],0 of 3
COC(=O)c1ccccc1N=NN(C)CC(C)C,survivor count,[6],2 of 6
same,survivor count,[8],4 of 6
O=C(O)c1ccc(OCC(=O)c2ccccc2)cc1,survivor count,"dose: 400.0 mg/kg/injection, schedule: Q01DX009 (ip), vehicle: saline with Tween-80",2 of 6
CCCCCCCCCCCCCCCN(CCCl)CCCl,survivor count,"dose: 400.0 mg/kg/injection, schedule: Q01DX001 (ip), vehicle: carboxymethylcellulose (CMC)",0 of 4
OC1(Cc2nccc3ccccc23)CCN(Cc2ccccc2)CC1,survivor count,"dose: 400.0 mg/kg/injection, schedule: Q04DX003 (ip), vehicle: carboxymethylcellulose (CMC)",0 of 6
CC(C)(C)CC(C)(C)NCC(O)COc1ccc(C(C)(C)c2ccc(OCC(O)CNC(C)(C)CC(C)(C)C)cc2)cc1 (centres undefined),survivor count,"dose: 25.0 mg/kg/injection, schedule: Q01DX001 (ip), vehicle: saline sonified",6 of 6
same,survivor count,"dose: 50.0 mg/kg/injection, schedule: Q04DX003 (ip), vehicle: other",0 of 6
CCOC(=O)/C(O)=C\c1cc(Cl)nnc1Cl,T/C,"dose: 81.3 mg/kg/injection, schedule: Q04DX002 (ip), vehicle: Klucel (hydroxypropylcellulose) (HPC)",126 % of control
Cc1ccc(NCC(O)CN2CCCC2)cc1 (centres undefined),survivor count,[13],6 of 6
same,survivor count,"dose: 50.0 mg/kg/injection, schedule: Q04DX003 (ip), vehicle: Klucel (hydroxypropylcellulose) (HPC)",1 of 6
same,survivor count,[5],0 of 6
same,survivor count,[14],5 of 6
same,survivor count,"dose: 200.0 mg/kg/injection, schedule: Q01DX001 (ip), vehicle: other",0 of 6
same,survivor count,"dose: 400.0 mg/kg/injection, schedule: Q01DX001 (ip), vehicle: other",0 of 6
CC(=O)Nc1cc2[nH]cnc2c(Br)n1,survivor count,"dose: 200.0 mg/kg/injection, schedule: Q01DX005 (ip), vehicle: saline",1 of 4
same,survivor count,"dose: 400.0 mg/kg/injection, schedule: Q01DX005 (ip), vehicle: saline",0 of 4
